Here are results for one substance from patent US20100093018A1, “CELLS […] PROTEINS AND ASSAYS USING SUCH CELLS” (ACHILLION PHARMACEUTICALS, INC., priority 2007, published 2010).

The test concerns the target HCV NS3 protein (hepatitis C virus) (UniProt Q9WMX2). As to the kind of experiment: co-immunoprecipitation of viral proteins from replicon cells.

Results are given in words; binding and its absence hold for the method and conditions named. In cells and extracts the contact can be indirect. Some binding calls cover weakened binding; strength is not graded here.

For “HCV NS4A protein (from UniProt Q9WMX2 1658-1711)”, the binding result was “binds”.
